Measurements taken from PMC3764826, “Bpur, the Lyme Disease Spirochete's PUR Domain Protein”.
These are yes or no findings as the source states them, for the method shown. Binding seen in cells or lysates may run through a third protein.

Biological target: T1, Bpur (borrelial PUR domain protein), recombinant wild type initiating from the second AUG codon (Borrelia burgdorferi) (UniProt O51076)
T1 sequence: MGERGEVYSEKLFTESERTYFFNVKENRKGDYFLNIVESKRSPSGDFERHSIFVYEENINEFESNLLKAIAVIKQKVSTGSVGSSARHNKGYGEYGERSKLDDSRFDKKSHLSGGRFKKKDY
Experiment: co-IP; purified SsbP and Bpur, 1 μM each, incubated together at room temperature, then applied to Bpur-directed antiserum on protein A resin beads; eluates immunoblotted with SsbP- or Bpur-specific antiserum; controls: plain protein A beads, irrelevant IgG beads; both purified

With “SsbP (single-stranded DNA-binding protein of the cp32 prophage) (Borrelia burgdorferi)” the binding was “no binding (tested: 1 μM each)”.
